No constants are given. Whether binding was seen depends on the method and setting. Binding calls can cover weak binding; strength is not graded here.
Molecular target: T1, Scavenger receptor BI (SR-BI/CLA-1) of mouse RAW 264.7 monocyte-macrophages (mouse) (UniProt Q61009)
T1 sequence (looked up): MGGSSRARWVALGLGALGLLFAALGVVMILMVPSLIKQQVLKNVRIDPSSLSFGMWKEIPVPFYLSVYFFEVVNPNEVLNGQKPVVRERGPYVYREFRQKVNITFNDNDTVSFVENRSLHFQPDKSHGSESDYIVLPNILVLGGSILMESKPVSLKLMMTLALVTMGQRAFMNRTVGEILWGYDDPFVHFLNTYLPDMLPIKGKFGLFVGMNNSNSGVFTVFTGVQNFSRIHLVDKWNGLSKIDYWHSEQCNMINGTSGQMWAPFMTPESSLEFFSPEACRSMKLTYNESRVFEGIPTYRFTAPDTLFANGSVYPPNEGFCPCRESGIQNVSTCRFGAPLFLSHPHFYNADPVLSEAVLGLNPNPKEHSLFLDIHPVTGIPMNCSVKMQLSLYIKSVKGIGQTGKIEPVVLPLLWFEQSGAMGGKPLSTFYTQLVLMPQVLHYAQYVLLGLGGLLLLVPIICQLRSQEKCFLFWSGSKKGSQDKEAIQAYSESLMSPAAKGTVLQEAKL
Test: 125I-HDL competition binding on ice on RAW 264.7 cells (endogenous SR-BI)

In the case of “Human apoE-free high-density lipoprotein HDL2+3 (1.072<d<1.216)”, the binding is reported as “binds”.
